# Source: patent US6696427B1, “Use of bisphosphonates for the prevention and treatment of infectious processes” (Jomaa Pharmaka GmbH, priority 1998, dated 2004)
# At least one compound was matched to its structure with a doubt left.
# System: γδ-T cells
# Assay: activatability of γδ-T cells in mononuclear cells isolated from blood of treated test subjects
# Assay type: in vivo, human
# Details: protocol from Examples 1 and 2, dose not given
# Experimental: […] After the third infusion, a blood sample was taken from the subjects. The mononuclear cells were isolated from the blood. The activatability of the γδ-T cells was then tested. A full description is published in Jomaa et al. FEMS Immunol. Med. Microbiol. September 1999; 25(4); 371-8.
# In contrast, cells from control subjects could be activated.
structure (smiles),measurement,value
"O=P(O)(O)C(O)(Cn1ccnc1)P(=O)(O)O [zoledronic acid, 1-hydroxy-2-(imidazol-1-yl)-ethylidene-1,1-bisphosphonic acid]",γδ-T cell activation by antigens obtained from microorganisms,no γδ-T cell activation
